PubChem BioAssay AID1053208, Peter MacCallum Cancer Centre – 2014

- Test: 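Synthetic lethal interactions between gene loss and doxorubicin in osteosarcoma cells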 (primary screen)
- Cell system: mouse osteosarcoma cells, early-passage culture from an engineered mouse model of fibroblastic bone tumour
- Reagents: siRNA pool against mouse genes, 40 nM
- Duration: about 120 h (48 h before drug, then 72 h with drug)
- Treatment: doxorubicin 100 nM for 72 h, roughly 30-40% inhibitory dose
- Read-out: 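Viability read as ATP luminescence after 72 h of 100 nM doxorubicin or none, duplicate wells averaged, scaled to non-targeting siRNA, then expressed as robust z-scores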
- Scale: viability z-score with doxorubicin and doxorubicin viability vs non-targeting: higher = more viable cells under doxorubicin; viability z-score without drug: higher = more viable cells with knock-down alone; z-score of drug to no-drug ratio: higher = less drug sensitisation by knock-down
- Rule for the call: 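a pool counts as active when its viability z-score with doxorubicin is -2 or below and its z-score without drug lies between -2 and 2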
This is an unselected part of about 17,000 reagents tested. 788 of them (4.7%) were called active. 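Calls rest on z-score classes alone; an extra cut-off of viability at most 70% of control was not applied to them.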

Target gene | combined z-score class | viability z-score with doxorubicin | viability z-score without drug | z-score of drug to no-drug ratio | doxorubicin viability vs non-targeting | activity call
Or10j5 (olfactory receptor family 10 subfamily J member 5) | no change with or without drug | 0.34 | -0.84 | 1.12 | 0.97 | inactive
Tpk1 (thiamine pyrophosphokinase) | no change with or without drug | -1.57 | 0 | -1.57 | 0.8 | inactive
Arl6 (ADP-ribosylation factor-like 6) | no change with or without drug | -1.01 | -0.51 | -0.67 | 0.85 | inactive
Manea (mannosidase, endo-alpha) | low cell count without drug only | -0.79 | -2.19 | 0.9 | 0.87 | inactive
Tmem38a (transmembrane protein 38A) | no change with or without drug | -0.56 | -1.18 | 0.34 | 0.89 | inactive
Adamts10 (ADAM metallopeptidase with thrombospondin type 1 motif 10) | no change with or without drug | 0.45 | 1.52 | -0.45 | 0.98 | inactive
A630012P03Rik (RIKEN cDNA A630012P03 gene) | no change with or without drug | 0.45 | -0.84 | 1.24 | 0.98 | inactive
Iftap (intraflagellar transport associated protein) | no change with or without drug | -0.22 | -1.18 | 0.79 | 0.92 | inactive
Srsf5 (serine and arginine-rich splicing factor 5) | no change with or without drug | -0.67 | -0.67 | -0.11 | 0.88 | inactive
Marco (macrophage receptor with collagenous structure) | no change with or without drug | 1.12 | -1.52 | 2.59 | 1.04 | inactive
Txndc2 (thioredoxin domain containing 2 (spermatozoa)) | no change with or without drug | 0 | -0.67 | 0.56 | 0.94 | inactive
Sftpc (surfactant associated protein C) | no change with or without drug | 0.22 | 0.17 | 0.22 | 0.96 | inactive
Fam25a (family with sequence similarity 25, member A) | low cell count with doxorubicin only | -3.93 | -0.17 | -3.93 | 0.59 | active
Tspan9 (tetraspanin 9) | no change with or without drug | 0 | 0.17 | 0 | 0.94 | inactive
Fitm1 (fat storage-inducing transmembrane protein 1) | no change with or without drug | -0.11 | 0.17 | -0.11 | 0.93 | inactive
Slc47a1 | no change with or without drug | -0.22 | 0.51 | -0.45 | 0.92 | inactive
Heatr5b (HEAT repeat containing 5B) | no change with or without drug | 0.22 | -0.17 | 0.45 | 0.96 | inactive
Pcare (photoreceptor cilium actin regulator) | no change with or without drug | 0.22 | -0.17 | 0.45 | 0.96 | inactive
Smarcb1 (SWI/SNF related BAF chromatin remodeling complex subunit B1) | no change with or without drug | 0.45 | 1.35 | -0.34 | 0.98 | inactive
Dpf2 (double PHD fingers 2) | no change with or without drug | -1.35 | -0.51 | -1.01 | 0.82 | inactive
Gatb (glutamyl-tRNA amidotransferase subunit B) | no change with or without drug | 1.24 | -0.34 | 1.69 | 1.05 | inactive
Timm8b (translocase of inner mitochondrial membrane 8B) | low cell count with doxorubicin only | -3.15 | -0.17 | -3.15 | 0.66 | active
Lyrm2 (LYR motif containing 2) | no change with or without drug | 0.9 | -0.17 | 1.24 | 1.02 | inactive
Tmprss2 (transmembrane protease, serine 2) | no change with or without drug | -1.01 | -1.85 | 0.34 | 0.85 | inactive
Mybpc2 (myosin binding protein C, fast-type) | no change with or without drug | -0.9 | -0.51 | -0.56 | 0.86 | inactive
Cxcr3 (C-X-C motif chemokine receptor 3) | no change with or without drug | 0.9 | -0.84 | 1.69 | 1.02 | inactive
Iapp (islet amyloid polypeptide) | no change with or without drug | -1.12 | -1.85 | 0.22 | 0.84 | inactive
Or5p64 (olfactory receptor family 5 subfamily P member 64) | no change with or without drug | -1.57 | 0 | -1.57 | 0.8 | inactive
H1f10 (H1.10 linker histone) | no change with or without drug | 0 | -0.51 | 0.45 | 0.94 | inactive
Stk39 (serine/threonine kinase 39) | no change with or without drug | -0.11 | -1.18 | 0.9 | 0.93 | inactive
Cyp4a12a (cytochrome P450, family 4, subfamily a, polypeptide 12a) | no change with or without drug | -0.9 | -1.18 | 0 | 0.86 | inactive

Continued (4 carried over from the part before).
Target gene | combined z-score class | viability z-score with doxorubicin | viability z-score without drug | z-score of drug to no-drug ratio | doxorubicin viability vs non-targeting | activity call
Or5p64 (olfactory receptor family 5 subfamily P member 64) | no change with or without drug | -1.57 | 0 | -1.57 | 0.8 | inactive
H1f10 (H1.10 linker histone) | no change with or without drug | 0 | -0.51 | 0.45 | 0.94 | inactive
Stk39 (serine/threonine kinase 39) | no change with or without drug | -0.11 | -1.18 | 0.9 | 0.93 | inactive
Cyp4a12a (cytochrome P450, family 4, subfamily a, polypeptide 12a) | no change with or without drug | -0.9 | -1.18 | 0 | 0.86 | inactive
Stx18 (syntaxin 18) | no change with or without drug | 0.45 | 0.17 | 0.45 | 0.98 | inactive
Defb19 (defensin beta 19) | no change with or without drug | 0 | 0.34 | -0.11 | 0.94 | inactive
Jsrp1 (junctional sarcoplasmic reticulum protein 1) | no change with or without drug | 0 | -0.84 | 0.67 | 0.94 | inactive
Paip2b (poly(A) binding protein interacting protein 2B) | no change with or without drug | 0 | -1.18 | 1.01 | 0.94 | inactive
Il36g (interleukin 36G) | low cell count with doxorubicin only | -2.14 | -1.35 | -1.35 | 0.75 | active
Pepd (peptidase D) | no change with or without drug | -1.12 | 0.51 | -1.35 | 0.84 | inactive
Sft2d2 (SFT2 domain containing 2) | no change with or without drug | 0.67 | 0.17 | 0.67 | 1 | inactive
Barx1 (BarH-like homeobox 1) | low cell count with doxorubicin only | -2.25 | 0.17 | -2.36 | 0.74 | active
Barhl1 (BarH like homeobox 1) | no change with or without drug | 0.9 | 0.17 | 0.9 | 1.02 | inactive
Tceal9 (transcription elongation factor A like 9) | high cell count with and without drug | 3.48 | 3.37 | 1.24 | 1.25 | inactive
Or4x6 (olfactory receptor family 4 subfamily X member 6) | no change with or without drug | -0.34 | -1.69 | 1.01 | 0.91 | inactive
Gtf2h5 (general transcription factor IIH, polypeptide 5) | low cell count with doxorubicin only | -2.02 | -0.51 | -1.69 | 0.76 | active
Cnih3 (cornichon family AMPA receptor auxiliary protein 3) | no change with or without drug | 1.12 | 1.18 | 0.45 | 1.04 | inactive
Sell (selectin, lymphocyte) | no change with or without drug | 0 | 1.01 | -0.56 | 0.94 | inactive
Cntnap1 (contactin associated protein-like 1) | no change with or without drug | -0.9 | -0.17 | -0.79 | 0.86 | inactive
Nat14 (N-acetyltransferase 14) | no change with or without drug | -1.57 | -1.85 | -0.34 | 0.8 | inactive
Gab1 (growth factor receptor bound protein 2-associated protein 1) | no change with or without drug | -0.22 | 0.17 | -0.22 | 0.92 | inactive
1700001O22Rik (RIKEN cDNA 1700001O22 gene) | no change with or without drug | -1.12 | 0.34 | -1.24 | 0.84 | inactive
P2ry1 (purinergic receptor P2Y, G-protein coupled 1) | no change with or without drug | 0.34 | -0.84 | 1.12 | 0.97 | inactive
